Source: PubChem BioAssay AID1224904 (Broad Institute, 2016).

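293T-iDUX4 dual-reporter cells; luminescence of the tet-on Italica luciferase control is read after 24 h. The test concentration is not given here. Percent change in the Italica control signal; more negative values mean stronger inhibition, which points to nonspecific, tet-on or cytotoxic effects.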

Values are in %. Common to all entries: measured here: Italica tet-on control reporter. Part of the compounds only, not a random draw; the main read-out is not listed here.

{"compound": "O=C(C[C@H]1CC[C@H]2[C@@H](COC[C@@H](O)CN2C(=O)c2cc(Cl)cc(Cl)c2)O1)N1CCc2ccccc2C1", "activity change (%)": "-23.55"}
{"compound": "COc1ccc(NC(=O)Nc2ccc3c(c2)[C@@H]2C[C@@H](CC(=O)N4CCc5ccccc5C4)O[C@H](CO)[C@@H]2O3)cc1", "activity change (%)": "-17.01"}
{"compound": "O=S(=O)(c1ccc(F)cc1)N1CCCCN2[C@H](CO)[C@@H](c3ccc(-c4cncnc4)cc3)[C@H]2C1", "activity change (%)": "-5.546"}
{"compound": "CN(C)C(=O)c1ccc(-c2ccc3c(c2)[C@H]2[C@H](CCN2C(=O)c2ccccc2F)[C@H](CO)N3)cc1", "activity change (%)": "-20.56"}
{"compound": "COc1cccc(C#Cc2ccc([C@H]3[C@H]4CN(C(=O)Cc5ccccc5)CC(=O)N4[C@H]3CO)cc2)c1", "activity change (%)": "-13.7"}
{"compound": "COc1cccc(-c2ccc([C@H]3[C@@H](CO)N4CCCCN(S(=O)(=O)c5cccs5)C[C@H]34)cc2)c1", "activity change (%)": "4.63"}
{"compound": "C/C=C/c1ccccc1[C@H]1[C@@H](C#N)N(c2nc(CC)cs2)[C@H]1CO", "activity change (%)": "-18.07"}
{"compound": "O=S(=O)(c1cccs1)N1CCCCN2[C@H](C1)[C@@H](c1ccc(Br)cc1)[C@@H]2CO", "activity change (%)": "-3.973"}
{"compound": "CO[C@H]1CN(C)C(=O)c2ccc(NC(=O)c3cccc(Oc4ccccc4)c3)cc2OC[C@@H](C)NC[C@@H]1C", "activity change (%)": "-48.77"}
{"compound": "COCC(=O)N1CC[C@@H]2[C@H](CO)Nc3ccc(C#Cc4cccc(F)c4)cc3[C@@H]21", "activity change (%)": "-2.263"}
{"compound": "COc1cccc(CN2CC3(C2)CN(C(=O)C2CC2)[C@H](CO)c2c3c3ccc(OC)cc3n2C)c1", "activity change (%)": "-11.61"}
{"compound": "Cc1ccccc1-c1ccc([C@@H]2[C@@H](CO)N3CCCCN(C(=O)c4cccnc4)C[C@H]23)cc1", "activity change (%)": "3.459"}
{"compound": "CC(C)C#Cc1ccc([C@@H]2[C@H](CO)N3C(=O)CN(C(=O)NC4CCCC4)C[C@@H]23)cc1", "activity change (%)": "-20.71"}
{"compound": "C[C@@H]1CN([C@@H](C)CO)C(=O)c2c(c3ccccc3n2C)-c2ccccc2CO[C@@H]1CN(C)S(=O)(=O)c1ccc(C(F)(F)F)cc1", "activity change (%)": "-51.02"}
{"compound": "COc1ccc2c3c(n(C)c2c1)[C@H](CO)N(Cc1ccccc1)CC31CN(C(=O)c2ccccc2F)C1", "activity change (%)": "-31.29"}
{"compound": "O=C(C[C@H]1CC[C@@H]2[C@H](COC[C@H](O)CN2Cc2ccc(C(F)(F)F)cc2)O1)N1CCc2ccccc2C1", "activity change (%)": "-28.87"}
{"compound": "C[C@@H]1CN([C@@H](C)CO)C(=O)c2c(c3ccccc3n2C)-c2ccccc2CO[C@H]1CN(C)C(=O)Nc1cccc(Cl)c1Cl", "activity change (%)": "-29.74"}
{"compound": "CN1c2ccc(-c3ccc(C#N)cc3)cc2[C@H]2[C@H](CCN2C(=O)c2cccc(F)c2)[C@@H]1CO", "activity change (%)": "3.054"}
{"compound": "C/C=C/c1ccc([C@H]2[C@H]3CN(S(=O)(=O)c4cccc(C)c4)CCCCN3[C@H]2CO)cc1", "activity change (%)": "3.624"}
{"compound": "O=C(CN1CCOCC1)N1CCCCN2[C@H](C1)[C@@H](c1ccc(C#Cc3ccccc3F)cc1)[C@@H]2CO", "activity change (%)": "-12.4"}
{"compound": "O=C(c1ccc(F)cc1)N1CC(=O)N2[C@@H](CO)[C@@H](c3ccc(C#CCC4CCCC4)cc3)[C@@H]2C1", "activity change (%)": "-16.1"}
{"compound": "O=C(C[C@H]1CC[C@H]2[C@@H](COC[C@@H](O)CN2Cc2cccc(Cl)c2)O1)NCC1CCCCC1", "activity change (%)": "-6.655"}
{"compound": "O=C(Cc1ccccc1)N1CC2(C1)[C@H](c1ccccc1)[C@@H](CO)N2S(=O)(=O)Cc1ccccc1", "activity change (%)": "-12.22"}
{"compound": "CN1c2ccc(-c3ccc(F)cc3)cc2[C@@H]2[C@@H](CCN2S(=O)(=O)c2cccc(F)c2)[C@H]1CO", "activity change (%)": "6.34"}
{"compound": "N#C[C@@H]1[C@@H](c2ccccc2C2=CCCCC2)[C@H](CO)N1C(=O)Cc1ccncc1", "activity change (%)": "-10.32"}
{"compound": "CC(C)[C@H](C)NC(=O)N(C)C[C@H]1OCc2ccccc2-c2c(n(C)c3ccccc23)C(=O)N([C@@H](C)CO)C[C@@H]1C", "activity change (%)": "-5.21"}
{"compound": "Cc1ccc(S(=O)(=O)N(C)C[C@@H]2OCCCC[C@@H](C)Oc3ccc(NC(=O)C4CCCCC4)cc3C(=O)N([C@@H](C)CO)C[C@H]2C)cc1", "activity change (%)": "-31.32"}
{"compound": "COc1ccccc1CN1[C@H](CO)[C@H](c2ccccc2)C12CN(C(=O)Cc1ccccc1)C2", "activity change (%)": "-20.13"}
{"compound": "O=C(C[C@@H]1C[C@H]2c3cc(NC(=O)Nc4ccccc4F)ccc3O[C@H]2[C@H](CO)O1)NCc1ccc(Oc2ccccc2)cc1", "activity change (%)": "-81.21"}
{"compound": "O=C(Cc1ccccn1)N1CCCCN2[C@H](CO)[C@H](c3ccc(C#Cc4ccccc4)cc3)[C@@H]2C1", "activity change (%)": "-9.686"}
{"compound": "COc1ccc2c3c(n(C)c2c1)[C@@H](CO)N(Cc1ccccc1F)CC31CN(CC2CC2)C1", "activity change (%)": "-16.51"}
{"compound": "COc1cccc(-c2ccc3c(c2)[C@H]2[C@H](CCN2S(=O)(=O)c2ccccc2F)[C@H](CO)N3C)c1", "activity change (%)": "-62.81"}
{"compound": "CC(C)[C@H](C)NC(=O)N(C)C[C@@H]1OCc2ccccc2-c2c(n(C)c3ccccc23)C(=O)N([C@@H](C)CO)C[C@@H]1C", "activity change (%)": "-13.87"}
{"compound": "C[C@@H]1CN([C@H](C)CO)C(=O)c2c(c3ccccc3n2C)-c2ccccc2CO[C@@H]1CN(C)Cc1cccc(F)c1", "activity change (%)": "1.122"}
{"compound": "O=C(C1CCCC1)N1[C@@H](CO)[C@@H](c2ccccc2)C12CN(Cc1cccc(Cl)c1)C2", "activity change (%)": "-28.24"}
{"compound": "CO[C@@H]1CN(C)C(=O)c2cc(NC(=O)Nc3ccc(Cl)cc3)ccc2OC[C@@H](C)N(C)C[C@@H]1C", "activity change (%)": "-1.289"}

The last 5 entries again:

- COc1cccc(-c2ccc3c(c2)[C@H]2[C@H](CCN2S(=O)(=O)c2ccccc2F)[C@H](CO)N3C)c1 : activity change -62.81%
- CC(C)[C@H](C)NC(=O)N(C)C[C@@H]1OCc2ccccc2-c2c(n(C)c3ccccc23)C(=O)N([C@@H](C)CO)C[C@@H]1C : activity change -13.87%
- C[C@@H]1CN([C@H](C)CO)C(=O)c2c(c3ccccc3n2C)-c2ccccc2CO[C@@H]1CN(C)Cc1cccc(F)c1 : activity change 1.122%
- O=C(C1CCCC1)N1[C@@H](CO)[C@@H](c2ccccc2)C12CN(Cc1cccc(Cl)c1)C2 : activity change -28.24%
- CO[C@@H]1CN(C)C(=O)c2cc(NC(=O)Nc3ccc(Cl)cc3)ccc2OC[C@@H](C)N(C)C[C@@H]1C : activity change -1.289%